Experimental data reported in the supplement of paper PMC12067093, “Discovery and optimisation of a covalent ligand for TRIM25 and its application to targeted protein ubiquitination” (Chemical Science, 2025).
This is one part of the list.

Protein sequences, listed by entry. Tags and fused reporters are not part of them. Lines headed by an entry give the natural chain unless they say otherwise; changes in a name come on top.
UniProt P29590: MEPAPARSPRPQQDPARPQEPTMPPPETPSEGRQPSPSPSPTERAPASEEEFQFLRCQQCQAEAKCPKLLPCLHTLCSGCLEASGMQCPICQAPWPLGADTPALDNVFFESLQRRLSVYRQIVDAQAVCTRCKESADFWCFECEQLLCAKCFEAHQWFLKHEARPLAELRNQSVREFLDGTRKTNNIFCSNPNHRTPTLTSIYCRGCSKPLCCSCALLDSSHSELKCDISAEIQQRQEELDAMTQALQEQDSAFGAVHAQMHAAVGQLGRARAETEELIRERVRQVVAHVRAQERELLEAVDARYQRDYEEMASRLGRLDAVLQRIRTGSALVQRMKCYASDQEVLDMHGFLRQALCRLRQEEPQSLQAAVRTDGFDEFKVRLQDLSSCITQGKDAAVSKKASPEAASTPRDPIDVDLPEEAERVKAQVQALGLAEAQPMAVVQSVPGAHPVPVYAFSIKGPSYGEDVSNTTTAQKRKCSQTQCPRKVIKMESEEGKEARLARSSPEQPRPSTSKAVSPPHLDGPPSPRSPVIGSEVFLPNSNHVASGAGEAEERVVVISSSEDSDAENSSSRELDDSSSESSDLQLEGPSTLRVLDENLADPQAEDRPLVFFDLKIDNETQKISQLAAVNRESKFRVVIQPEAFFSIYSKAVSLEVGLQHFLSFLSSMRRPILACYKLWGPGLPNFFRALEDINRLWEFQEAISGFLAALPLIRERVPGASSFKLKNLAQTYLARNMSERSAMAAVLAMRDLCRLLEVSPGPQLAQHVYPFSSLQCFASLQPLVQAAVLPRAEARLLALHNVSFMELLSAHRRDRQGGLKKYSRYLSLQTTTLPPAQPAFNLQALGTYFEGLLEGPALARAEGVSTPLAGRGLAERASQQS
UniProt Q00722, whole entry, looked up: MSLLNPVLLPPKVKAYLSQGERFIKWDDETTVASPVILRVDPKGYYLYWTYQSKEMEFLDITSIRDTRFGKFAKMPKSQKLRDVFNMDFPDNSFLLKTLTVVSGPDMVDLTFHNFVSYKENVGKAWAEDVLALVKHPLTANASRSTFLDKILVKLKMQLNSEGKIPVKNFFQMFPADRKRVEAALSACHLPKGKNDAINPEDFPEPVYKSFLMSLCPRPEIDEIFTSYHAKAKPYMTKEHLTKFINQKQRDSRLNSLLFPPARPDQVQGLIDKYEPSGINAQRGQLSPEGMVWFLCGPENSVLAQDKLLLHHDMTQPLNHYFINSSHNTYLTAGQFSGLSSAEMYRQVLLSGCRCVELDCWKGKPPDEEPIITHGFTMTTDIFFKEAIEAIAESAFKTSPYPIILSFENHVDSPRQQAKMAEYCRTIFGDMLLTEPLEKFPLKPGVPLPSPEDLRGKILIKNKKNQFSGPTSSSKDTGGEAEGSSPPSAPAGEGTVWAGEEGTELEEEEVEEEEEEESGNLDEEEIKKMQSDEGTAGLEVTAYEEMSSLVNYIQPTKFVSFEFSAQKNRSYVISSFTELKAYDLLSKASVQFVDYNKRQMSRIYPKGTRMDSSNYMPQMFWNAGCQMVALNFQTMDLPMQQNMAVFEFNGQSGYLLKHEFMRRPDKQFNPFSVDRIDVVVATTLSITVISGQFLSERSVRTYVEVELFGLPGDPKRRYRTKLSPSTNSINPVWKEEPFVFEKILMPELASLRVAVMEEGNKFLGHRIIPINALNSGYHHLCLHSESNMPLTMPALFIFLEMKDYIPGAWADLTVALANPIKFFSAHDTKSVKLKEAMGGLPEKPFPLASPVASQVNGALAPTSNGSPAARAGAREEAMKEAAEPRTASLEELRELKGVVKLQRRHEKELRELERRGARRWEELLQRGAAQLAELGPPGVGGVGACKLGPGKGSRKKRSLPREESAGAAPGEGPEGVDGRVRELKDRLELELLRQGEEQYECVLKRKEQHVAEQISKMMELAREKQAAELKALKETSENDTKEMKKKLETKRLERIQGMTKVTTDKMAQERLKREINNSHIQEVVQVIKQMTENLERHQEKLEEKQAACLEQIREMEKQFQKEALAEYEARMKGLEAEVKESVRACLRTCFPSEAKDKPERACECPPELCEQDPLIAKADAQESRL
UniProt O00459, whole entry, looked up: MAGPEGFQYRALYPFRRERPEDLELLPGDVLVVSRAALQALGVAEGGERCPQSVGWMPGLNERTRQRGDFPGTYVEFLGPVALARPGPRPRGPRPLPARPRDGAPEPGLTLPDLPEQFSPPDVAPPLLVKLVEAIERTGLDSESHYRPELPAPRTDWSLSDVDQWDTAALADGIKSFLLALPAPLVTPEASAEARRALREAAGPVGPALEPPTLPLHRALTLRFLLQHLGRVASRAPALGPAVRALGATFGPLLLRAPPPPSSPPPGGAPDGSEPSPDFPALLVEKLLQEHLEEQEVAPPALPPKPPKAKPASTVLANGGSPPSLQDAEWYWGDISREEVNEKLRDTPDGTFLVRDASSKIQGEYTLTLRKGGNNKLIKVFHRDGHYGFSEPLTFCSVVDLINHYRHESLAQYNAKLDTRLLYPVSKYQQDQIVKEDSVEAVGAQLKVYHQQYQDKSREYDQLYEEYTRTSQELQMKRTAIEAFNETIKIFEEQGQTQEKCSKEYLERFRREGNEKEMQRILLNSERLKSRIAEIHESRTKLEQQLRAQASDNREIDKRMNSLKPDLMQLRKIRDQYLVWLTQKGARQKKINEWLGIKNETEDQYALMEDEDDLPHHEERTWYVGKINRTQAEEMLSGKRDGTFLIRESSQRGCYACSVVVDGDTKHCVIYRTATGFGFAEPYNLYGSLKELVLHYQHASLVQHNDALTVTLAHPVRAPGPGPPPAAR
UniProt P19174: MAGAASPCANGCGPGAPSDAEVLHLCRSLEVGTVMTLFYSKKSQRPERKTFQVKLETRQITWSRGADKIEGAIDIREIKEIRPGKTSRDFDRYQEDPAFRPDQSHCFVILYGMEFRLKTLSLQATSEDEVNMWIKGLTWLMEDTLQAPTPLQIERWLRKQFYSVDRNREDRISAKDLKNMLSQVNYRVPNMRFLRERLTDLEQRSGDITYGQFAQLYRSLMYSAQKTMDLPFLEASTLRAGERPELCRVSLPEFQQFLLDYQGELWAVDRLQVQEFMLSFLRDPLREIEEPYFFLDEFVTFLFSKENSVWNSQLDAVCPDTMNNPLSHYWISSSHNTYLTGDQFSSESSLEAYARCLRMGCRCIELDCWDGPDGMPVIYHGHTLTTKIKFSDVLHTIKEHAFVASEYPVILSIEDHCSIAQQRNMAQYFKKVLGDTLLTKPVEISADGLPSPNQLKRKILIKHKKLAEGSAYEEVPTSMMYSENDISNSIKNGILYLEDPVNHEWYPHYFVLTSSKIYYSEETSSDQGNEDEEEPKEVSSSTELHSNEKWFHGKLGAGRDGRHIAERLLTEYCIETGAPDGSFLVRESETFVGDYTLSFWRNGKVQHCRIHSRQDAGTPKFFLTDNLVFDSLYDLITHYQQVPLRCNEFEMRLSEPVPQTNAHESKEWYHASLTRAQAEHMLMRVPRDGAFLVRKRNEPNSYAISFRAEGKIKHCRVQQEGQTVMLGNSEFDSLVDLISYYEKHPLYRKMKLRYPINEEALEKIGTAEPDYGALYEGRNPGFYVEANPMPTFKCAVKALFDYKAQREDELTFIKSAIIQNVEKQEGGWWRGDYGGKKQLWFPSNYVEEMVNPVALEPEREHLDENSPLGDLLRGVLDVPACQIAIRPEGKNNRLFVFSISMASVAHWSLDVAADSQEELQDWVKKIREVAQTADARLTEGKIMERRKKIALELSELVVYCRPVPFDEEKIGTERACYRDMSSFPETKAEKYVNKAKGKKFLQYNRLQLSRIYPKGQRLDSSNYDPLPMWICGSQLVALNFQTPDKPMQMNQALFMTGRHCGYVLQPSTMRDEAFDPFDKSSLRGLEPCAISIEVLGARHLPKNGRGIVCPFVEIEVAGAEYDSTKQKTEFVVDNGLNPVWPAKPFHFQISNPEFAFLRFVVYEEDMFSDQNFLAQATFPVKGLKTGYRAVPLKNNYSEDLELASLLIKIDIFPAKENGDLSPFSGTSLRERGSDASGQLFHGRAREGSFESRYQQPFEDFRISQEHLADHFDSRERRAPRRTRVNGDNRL
UniProt O15031: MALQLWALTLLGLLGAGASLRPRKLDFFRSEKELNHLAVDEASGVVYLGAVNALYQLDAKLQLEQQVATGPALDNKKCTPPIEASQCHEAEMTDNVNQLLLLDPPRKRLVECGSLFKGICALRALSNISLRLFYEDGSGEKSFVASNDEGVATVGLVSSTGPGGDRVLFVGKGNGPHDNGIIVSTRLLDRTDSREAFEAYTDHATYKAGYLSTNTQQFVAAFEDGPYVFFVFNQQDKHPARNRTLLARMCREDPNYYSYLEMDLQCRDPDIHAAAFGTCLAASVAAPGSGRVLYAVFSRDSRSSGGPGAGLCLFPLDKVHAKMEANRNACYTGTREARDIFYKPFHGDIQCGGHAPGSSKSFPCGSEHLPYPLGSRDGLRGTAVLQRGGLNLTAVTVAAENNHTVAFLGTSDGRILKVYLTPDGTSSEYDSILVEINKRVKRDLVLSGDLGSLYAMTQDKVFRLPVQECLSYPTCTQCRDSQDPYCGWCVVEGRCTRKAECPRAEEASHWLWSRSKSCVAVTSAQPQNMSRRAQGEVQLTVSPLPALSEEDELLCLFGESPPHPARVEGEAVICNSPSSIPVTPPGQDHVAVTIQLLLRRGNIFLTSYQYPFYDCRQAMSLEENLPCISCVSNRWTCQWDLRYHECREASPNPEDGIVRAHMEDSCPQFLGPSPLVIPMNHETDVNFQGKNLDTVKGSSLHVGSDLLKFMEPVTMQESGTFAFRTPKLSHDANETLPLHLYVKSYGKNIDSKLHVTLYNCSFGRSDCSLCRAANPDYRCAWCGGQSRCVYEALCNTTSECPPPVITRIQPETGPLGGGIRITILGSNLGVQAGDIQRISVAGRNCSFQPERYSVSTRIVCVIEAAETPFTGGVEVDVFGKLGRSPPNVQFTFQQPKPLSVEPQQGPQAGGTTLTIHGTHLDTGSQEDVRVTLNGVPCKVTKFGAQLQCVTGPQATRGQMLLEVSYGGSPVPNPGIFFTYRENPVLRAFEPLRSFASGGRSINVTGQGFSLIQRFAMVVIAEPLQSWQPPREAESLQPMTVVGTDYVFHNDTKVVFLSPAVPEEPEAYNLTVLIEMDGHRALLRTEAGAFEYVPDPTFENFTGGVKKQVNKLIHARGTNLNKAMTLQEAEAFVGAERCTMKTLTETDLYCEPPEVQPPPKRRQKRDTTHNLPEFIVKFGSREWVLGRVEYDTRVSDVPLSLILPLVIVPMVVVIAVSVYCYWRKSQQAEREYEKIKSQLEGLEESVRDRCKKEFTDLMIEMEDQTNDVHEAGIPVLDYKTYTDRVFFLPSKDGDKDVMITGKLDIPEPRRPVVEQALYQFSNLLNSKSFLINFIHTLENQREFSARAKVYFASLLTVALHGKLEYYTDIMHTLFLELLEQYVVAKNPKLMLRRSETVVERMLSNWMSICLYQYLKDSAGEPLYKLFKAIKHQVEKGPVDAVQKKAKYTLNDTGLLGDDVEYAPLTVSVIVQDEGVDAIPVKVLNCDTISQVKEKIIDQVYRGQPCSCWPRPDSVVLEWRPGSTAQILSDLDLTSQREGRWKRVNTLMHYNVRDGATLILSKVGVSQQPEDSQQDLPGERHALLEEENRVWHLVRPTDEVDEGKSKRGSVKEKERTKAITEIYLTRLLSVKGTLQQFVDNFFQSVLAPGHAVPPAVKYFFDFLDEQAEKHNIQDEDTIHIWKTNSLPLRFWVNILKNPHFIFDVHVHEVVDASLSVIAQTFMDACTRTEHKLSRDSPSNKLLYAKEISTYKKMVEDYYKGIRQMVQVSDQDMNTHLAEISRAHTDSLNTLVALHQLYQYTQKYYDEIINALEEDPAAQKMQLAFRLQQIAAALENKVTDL
UniProt P14618, whole entry, looked up: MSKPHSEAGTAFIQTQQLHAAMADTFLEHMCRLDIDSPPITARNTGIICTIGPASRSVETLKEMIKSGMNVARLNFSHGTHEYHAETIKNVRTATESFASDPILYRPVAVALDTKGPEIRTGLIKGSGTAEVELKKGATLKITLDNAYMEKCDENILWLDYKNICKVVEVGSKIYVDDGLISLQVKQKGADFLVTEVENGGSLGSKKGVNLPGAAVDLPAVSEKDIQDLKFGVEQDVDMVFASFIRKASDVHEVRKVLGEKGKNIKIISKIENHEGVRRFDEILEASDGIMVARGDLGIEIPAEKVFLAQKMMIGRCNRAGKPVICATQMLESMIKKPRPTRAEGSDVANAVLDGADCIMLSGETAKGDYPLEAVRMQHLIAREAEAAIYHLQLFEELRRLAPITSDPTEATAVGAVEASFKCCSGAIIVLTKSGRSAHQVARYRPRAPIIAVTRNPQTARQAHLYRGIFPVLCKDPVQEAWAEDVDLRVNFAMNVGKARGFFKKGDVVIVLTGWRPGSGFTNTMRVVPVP

Compound: CC1Cc2ccccc2N1C(=O)C1CCCN(C1)C(=O)CCl (mixture of isomers) [TRIM25 ligand 11 (diastereomer mixture)]
Assay: probe-labelled cysteine peptide fold change vs DMSO (competition) (log2 fold change); higher = less target engagement (more negative = stronger competition)
Conditions: THP-1, incubation time: 4 h
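Note: competitive chemoproteomic profiling in live THP-1 cells with an iodoacetamide desthiobiotin (IA-DTB) probe, comparing probe-labelled peptide intensities in compound-treated cells against DMSO-treated controls.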

Target | probe-labelled cysteine peptide fold change (10 µM) | probe-labelled cysteine peptide fold change (50 µM)
PLEKHA2_Q9HB19_191_SQSYIPTSGCR (UniProt Q9HB19) | -0.043 | -0.184
PML_P29590_479_CSQTQCPR (UniProt P29590) | -0.201 | -0.093
PLOD1_Q02809_680_VGVDYEGGGCR (UniProt Q02809) | -0.0514 | 0.25
PLRG1_O43660_338_CQAAEPQIITGSHDTTIR (UniProt O43660) | 0.0435 | 0.283
PLCB2_Q00722_188_RVEAALSACHLPK (UniProt Q00722) | 0.0409 | -0.0651
PMPCA_Q10713_88_FGQFCTVGILINSGSR (UniProt Q10713) | 0.116 | 0.267
PNKP_Q96T60_445_AAGVPCR (UniProt Q96T60) | -0.15 | 0.218
PLA2G4A_P47712_726_CSVSLSNVEAR (UniProt P47712) | -0.121 | -0.121
PLIN3_O60664_39_VASMPLISSTCDMVSAAYASTK (UniProt O60664) | -0.0047 | 0.0556
PLCG2_P16885_551_LLQEYCMETGGK (UniProt P16885) | -0.0436 | -0.0603
PLOD3_O60568_698_YDCVISSPR (UniProt O60568) | 0.167 | 0.169
PLD3_Q8IV08_487_DWDSPYSHDLDTSADSVGNACR (UniProt Q8IV08) | -0.00483 | -0.0461
PLCB2_Q00722_296_GQLSPEGMVWFLCGPENSVLAQDK (UniProt Q00722) | 0.0529 | 0.0248
PITHD1_Q9GZP4_187_HEVTICNYEASANPADHR (UniProt Q9GZP4) | 0.323 | -0.301
PIK3R2_O00459_396_DGHYGFSEPLTFCSVVDLINHYR (UniProt O00459) | 0.0424 | 0.0979
PLEC_Q15149_3295_VPLDVACAR (UniProt Q15149) | 0.0179 | -0.124
PKN1_Q16512_317_LAGPFPATHYSTLCK (UniProt Q16512) | 0.165 | -0.214
PLAA_Q9Y263_666_TFCNCFVGQAGQK (UniProt Q9Y263) | -0.109 | 0.0225
PML_P29590_57+60_CQQCQAEAK (UniProt P29590) | -0.00539 | -0.0513
PLCG1_P19174_646_CNEFEMR (UniProt P19174) | 0.0609 | -0.175
PLAA_Q9Y263_263_HGECAQTIR (UniProt Q9Y263) | 0.0854 | 0.44
PLXNB2_O15031_486_DSQDPYCGWCVVEGR (UniProt O15031) | -0.0143 | 0.0368
PMS1_P54277_915_ECVHGR (UniProt P54277) | 0.328 | 0.196
PLXNB2_O15031_364_SFPCGSEHLPYPLGSR (UniProt O15031) | -0.00656 | 0.0757
PLCL2_Q9UPR0_794_GDVVDPYVYVEIHGIPADCAEQR (UniProt Q9UPR0) | -0.0541 | -0.112
PLAA_Q9Y263_143_CMMTLQGHTAAVWAVK (UniProt Q9Y263) | 0.0286 | 0.0632

Quoted from the listing:
For probe-labelled cysteine peptide fold change (50 µM), PLXNB2_O15031_364_SFPCGSEHLPYPLGSR (UniProt O15031) has the entry 0.0757
For probe-labelled cysteine peptide fold change (10 µM), PLAA_Q9Y263_666_TFCNCFVGQAGQK (UniProt Q9Y263) has the entry -0.109
For probe-labelled cysteine peptide fold change (50 µM), PLCG2_P16885_551_LLQEYCMETGGK (UniProt P16885) has the entry -0.0603
For probe-labelled cysteine peptide fold change (50 µM), PLCB2_Q00722_188_RVEAALSACHLPK (UniProt Q00722) has the entry -0.0651

Continuation.

Target | probe-labelled cysteine peptide fold change (10 µM) | probe-labelled cysteine peptide fold change (50 µM)
PLCB3_Q01970_193_RVETALESCGLK (UniProt Q01970) | -0.11 | 0.15
PKN1_Q16512_120_LDLLHQQLQELHAHVVLPDPAATHDGPQSPGAGGPTCSATNLSR (UniProt Q16512) | -0.00381 | -0.137
PITPNM1_O00562_259_CNTGSEGSEAQPPGKPSTEAR (UniProt O00562) | -0.0479 | -0.104
PINX1_Q96BK5_145_SKTDLDCIFGK (UniProt Q96BK5) | -0.138 | -0.268
PNPO_Q9NVS9_156_KLPEEEAECYFHSRPK (UniProt Q9NVS9) | -0.0908 | -0.0729
PIK3R1_P27986_146_GLECSTLYR (UniProt P27986) | 0.17 | 0.189
PMPCA_Q10713_466_LPHELCTLIR (UniProt Q10713) | -0.0203 | -0.13
PKM_P14618_423_CCSGAIIVLTK (UniProt P14618) | 0.0476 | 0.0123
PLCG1_P19174_106_YQEDPAFRPDQSHCFVILYGMEFR (UniProt P19174) | 0.0121 | 0.21
PIK3R4_Q99570_358_DLGNIIHNLCGHDLPEK (UniProt Q99570) | 0.0664 | 0.0689
PNKP_Q96T60_437_YVQCAR (UniProt Q96T60) | 0.11 | 0.0866
PLEC_Q15149_4071_FLEGTSCIAGVFVDATK (UniProt Q15149) | -0.0116 | 0.0455
PLAUR_Q03405_293_SGCNHPDLDVQYR (UniProt Q03405) | 0.118 | -0.0438
PKM_P14618_424_CCSGAIIVLTK (UniProt P14618) | 0.0363 | 0.0349
PMPCA_Q10713_140+142_HGGICDCQTSR (UniProt Q10713) | -0.0321 | -0.0373
PLD1_Q13393_876_AELGNQWINYISFCGLR (UniProt Q13393) | -0.0734 | 0.0204
PKN2_Q16513_704_DEVDSLMCEK (UniProt Q16513) | -0.0507 | -0.179
PIK3R4_Q99570_759_NGSLPDCPPPEDPAIAQLLK (UniProt Q99570) | -0.0253 | 0.126
PLEC_Q15149_1098_EYGSCSHHYQQLLQSLEQGAQEESR (UniProt Q15149) | 0.00989 | -0.19
PIK3R2_O00459_50_CPQSVGWMPGLNER (UniProt O00459) | -0.193 | -0.169
PLCL2_Q9UPR0_1095_QIHFAAVSCGLNKPGTENADVQKPR (UniProt Q9UPR0) | -0.0662 | -0.127
PLPBP_O94903_15_AGSMSAELGVGCALR (UniProt O94903) | -0.0502 | -0.104
PLOD2_O00469_576_ACDELVEEMEHYGK (UniProt O00469) | -0.0126 | -0.0599
PLEC_Q15149_530_SEFERLECLQR (UniProt Q15149) | -0.161 | -0.218
PMS2_P54278_591_EEILSSSDICQK (UniProt P54278) | 0.17 | 0.0372
PLXDC2_Q6UX71_529_EGFIVSEQC (UniProt Q6UX71) | 0.143 | -0.324
